No constants are given. Whether binding was seen depends on the method and setting. In cells and extracts the contact can be indirect. These calls come from enrichment with a bait or labelling near it, and not all partners need be listed.
Molecular target: N-terminal Strep-tagged MxiH[SctF] (Shigella flexneri) (UniProt P0A223)
Experiment: affinity purification with mass spectrometry; needle complexes solubilised from the membrane pellet (50 mM HEPES, 100 mM NaCl, 5 mM EDTA, 0.04% Triton X-100 pH 8.00) and purified by the Strep-tag on MxiH; proteins found by mass spectrometry

Protein sequences, listed by entry. Tags and fused reporters are not part of them.
UniProt P0A223: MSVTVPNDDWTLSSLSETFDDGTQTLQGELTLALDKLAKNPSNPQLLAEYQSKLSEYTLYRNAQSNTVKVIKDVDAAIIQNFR

B1: MxiM[SctG] (natural protein)
chain: CALKSSSNSEKEWHIVPVSKDYFSIPNDLLWSFNTTNKSINVYSKCISGKAVYSFNAGKFMGNFNVKEVDGCFMDAQKIAIDKLFSMLKDGVVLKGNKINDTILIEKDGEVKLKLIRGI
modifications: lipidated N-terminus
notes: MxiM[SctG], pilotin of the Shigella flexneri T3SS; also called pilotin; pilot protein
- binding: binds
